Where a name gives a salt, the structure may show the parent alone. ± gives the standard deviation of the averaged measurements. The list shows a part of the results. Plates or batches differ in their baseline, so values are only roughly comparable.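 The cells are a mouse kidney inner medullary collecting duct line, silenced either for the ciliary gene Rpgrip1l or with a non-targeting control siRNA.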

Assay [1] concerns mIMCD3. As to the kind of experiment: robust z score of cell number vs plate controls; higher = more cells (less cytotoxic). As to conditions: 10 µM, 48 h.
Assay [2] deals with mIMCD3. As to the kind of experiment: robust z score of cilia incidence (% cells with single cilium) vs plate controls; higher = more ciliated cells. As to conditions: 10 µM; 48 h; siRNA: siScr.
The test system of assay [3] is mIMCD3. Kind of assay: robust z score of cilia incidence (% cells with single cilium) vs plate controls; higher = more ciliated cells (rescue of cilia loss). As to conditions: 10 µM; 48 h; siRNA: siRpgrip1l.

As to `CCOC(=O)c1ncc2[nH]c3ccc(OCc4ccccc4)cc3c2c1COC`, the “robust z score of cell number” value in assay [1] (siRNA: siRpgrip1l) is -30.5 ± 27; in assay [1] (siRNA: siScr), -29.6 ± 18. For the same molecule, the “robust z score of cilia incidence” value in assay [2] is -38.7 ± 29; in assay [3] it was -43 ± 25.

For the molecule `CN1[C@@H]2CC[C@H]1C[C@@H](OC(=O)c1cc(Cl)cc(Cl)c1)C2`, the “robust z score of cell number” value is -85.8 ± 59 in assay [1] (siRNA: siRpgrip1l) and -128 ± 120 in assay [1] (siRNA: siScr). Also, the “robust z score of cilia incidence” value in assay [2] is -19.3 ± 1.4; in assay [3], -55.5 ± 6.1.

With `CCOC(=O)c1ncn2c1CN(C)C(=O)c1cc(N=[N+]=[N-])ccc1-2`, the entries for the “robust z score of cell number” value in assay [1] (siRNA: siRpgrip1l) and in assay [1] (siRNA: siScr) were -5.07 ± 0.25 and 1.64 ± 5.1, respectively. The figures for the “robust z score of cilia incidence” value in assay [2] and in assay [3] were 1.84 ± 2.3 and -15.1 ± 8.6, respectively.

Take `O=C(O)c1ccc2[nH]cc(CCCCN3CC=C(c4ccccc4)CC3)c2c1` [Carmoxirole hydrochloride]: the figures for the “robust z score of cell number” value in assay [1] (siRNA: siRpgrip1l) and in assay [1] (siRNA: siScr) were -4.82 ± 5.9 and -11.2 ± 14, respectively. Besides, the “robust z score of cilia incidence” value in assay [2] was -6.93 ± 2.5; in assay [3], -23 ± 18.

On to `OC(Cc1ccncc1)C(Cl)(Cl)Cl` (configuration not stated), for which the results for the “robust z score of cell number” value in assay [1] (siRNA: siRpgrip1l) and in assay [1] (siRNA: siScr) were -1.42 ± 2.6 and 0.388 ± 1.8, respectively. The “robust z score of cilia incidence” value in assay [2] is 3.75 ± 5.7; in assay [3] it was -17.9 ± 8.6.

Take `CC[C@@H](CO)NC(=O)[C@@H]1C=C2c3cccc4c3c(cn4C)C[C@H]2N(C)C1` [Methysergide maleate]: the “robust z score of cell number” value is -4.5 ± 0.97 in assay [1] (siRNA: siRpgrip1l) and -5.19 ± 4.4 in assay [1] (siRNA: siScr). The “robust z score of cilia incidence” value in assay [2] was -0.552 ± 3; in assay [3] it was -9.57 ± 5.5.

Consider `CC(=O)N(C)c1cccc(-c2ccnc3c(C(=O)c4cccs4)cnn23)c1` [Indiplon], for which the “robust z score of cell number” value in assay [1] (siRNA: siRpgrip1l) was -49.9 ± 67; in assay [1] (siRNA: siScr) it was -1.17 ± 3.5. The “robust z score of cilia incidence” value is 0.68 ± 0.14 in assay [2] and -11.2 ± 4.8 in assay [3].

Consider `CCOC(=O)c1ncn2c1[C@@H]1CCCN1C(=O)c1cc(OC)ccc1-2`, for which the “robust z score of cell number” value in assay [1] (siRNA: siRpgrip1l) is -26.6 ± 17; in assay [1] (siRNA: siScr), -5.29 ± 3.7. For the same molecule, the “robust z score of cilia incidence” value is 2.34 ± 6.7 in assay [2] and -8.84 ± 0.88 in assay [3].

Regarding `c1ccc(CCCN2CCN(CCOC(c3ccccc3)c3ccccc3)CC2)cc1`, the “robust z score of cell number” value in assay [1] (siRNA: siRpgrip1l) is -96.9 ± 57; in assay [1] (siRNA: siScr), -156 ± 140. In addition, the “robust z score of cilia incidence” value in assay [2] is -11.4 ± 3.7; in assay [3] it was -24.2 ± 9.5.

For the molecule `OC1CCCCC1N1CCC(c2ccccc2)CC1` (racemic) [(±)-Vesamicol hydrochloride], the “robust z score of cell number” value in assay [1] (siRNA: siRpgrip1l) was -13.1 ± 8.8; in assay [1] (siRNA: siScr), -13.5 ± 15. Further, the results for the “robust z score of cilia incidence” value in assay [2] and in assay [3] were -3.14 ± 0.12 and -12.8 ± 5.2, respectively.

Take `CCCN(CCC)C1CCc2ccc(O)cc2C1` (configuration not stated) [7-Hydroxy-DPAT hydrobromide]: the “robust z score of cell number” value in assay [1] (siRNA: siRpgrip1l) is 1.48 ± 2.2; in assay [1] (siRNA: siScr), -1.36 ± 0.86. Also, the “robust z score of cilia incidence” value in assay [2] is -1.68 ± 0.7; in assay [3], -6.95 ± 2.8.

Regarding `C[C@@H](N)Cc1cnc[nH]1` [(R)-(-)- α-Methylhistamine dihydrobromide], the “robust z score of cell number” value in assay [1] (siRNA: siRpgrip1l) is -2.96 ± 9.8; in assay [1] (siRNA: siScr) it was -4.75 ± 4.5. The “robust z score of cilia incidence” value in assay [2] is 1.5 ± 1.5; in assay [3] it was -15.6 ± 2.5.

Consider `Ic1cncc(OC[C@@H]2CCN2)c1`, for which the results for the “robust z score of cell number” value in assay [1] (siRNA: siRpgrip1l) and in assay [1] (siRNA: siScr) were 4.12 ± 8.2 and 1.57 ± 2.1, respectively. Moreover, the “robust z score of cilia incidence” value in assay [2] is 1.14 ± 0.23; in assay [3], -124 ± 110.

Turning to `O=C(CCCN1CCC2(CC1)C(=O)N(Cc1cccc(F)c1)CN2c1ccccc1)c1ccc(F)cc1` [3'-Fluorobenzylspiperone maleate], the figures for the “robust z score of cell number” value in assay [1] (siRNA: siRpgrip1l) and in assay [1] (siRNA: siScr) were -56.2 ± 18 and -42.6 ± 7, respectively. Besides, the “robust z score of cilia incidence” value was -47.9 ± 3 in assay [2] and -41.5 ± 1.2 in assay [3].

Regarding `CN1CCN(c2ccc3ccccc3n2)CC1` [N-Methylquipazine dimaleate], the “robust z score of cell number” value in assay [1] (siRNA: siRpgrip1l) was -0.0486 ± 4.4; in assay [1] (siRNA: siScr), 5.2 ± 7.2. Besides, the “robust z score of cilia incidence” value in assay [2] was -4.53 ± 0.6; in assay [3], -25.8 ± 2.2.

In the case of `COc1ccc2c(c1)c(CCN1CCOCC1)c(C)n2C(=O)c1cccc(Cl)c1Cl`, the results for the “robust z score of cell number” value in assay [1] (siRNA: siRpgrip1l) and in assay [1] (siRNA: siScr) were -29.9 ± 15 and -27.5 ± 4.8, respectively. The entries for the “robust z score of cilia incidence” value in assay [2] and in assay [3] were -36.8 ± 31 and -26.6 ± 14, respectively.

Take `COc1ccc(C(=O)N2CCCC2=O)cc1` [Aniracetam]: the “robust z score of cell number” value in assay [1] (siRNA: siRpgrip1l) amounted to 1.29 ± 0.85; in assay [1] (siRNA: siScr) it was 0.234 ± 1.7. The “robust z score of cilia incidence” value in assay [2] was -2.56 ± 1.1; in assay [3], -6.78 ± 3.2.

With `CCN(CC)CCO[C@H]1CC[C@@]2(C)C(=CC[C@@H]3[C@@H]2CC[C@]2(C)C(=O)CC[C@@H]32)C1`, the “robust z score of cell number” value in assay [1] (siRNA: siRpgrip1l) is -194 ± 220; in assay [1] (siRNA: siScr), -45 ± 11. The “robust z score of cilia incidence” value is -45.6 ± 16 in assay [2] and -508 ± 320 in assay [3].

In the case of `CCCCC/C=C\C/C=C\C/C=C\C/C=C\CCCC(=O)Nc1ccc(O)cc1`, the “robust z score of cell number” value in assay [1] (siRNA: siRpgrip1l) is -18.2 ± 13; in assay [1] (siRNA: siScr), -5.24 ± 1. For the same molecule, the results for the “robust z score of cilia incidence” value in assay [2] and in assay [3] were -0.659 ± 0.57 and -17.7 ± 1.1, respectively.

Regarding `C#CCOC(=O)C1=CCCN(C)C1` [Arecaidine propargyl ester tosylate], the figures for the “robust z score of cell number” value in assay [1] (siRNA: siRpgrip1l) and in assay [1] (siRNA: siScr) were -18.5 ± 16 and -7.06 ± 3.6, respectively. Moreover, the “robust z score of cilia incidence” value in assay [2] is -0.242 ± 4.3; in assay [3], -13.9 ± 9.7.

As for `C=CCN1CC[C@]23c4c5ccc(O)c4O[C@H]2C(=O)CC[C@@]3(O)[C@H]1C5` [Naloxone hydrochloride], the “robust z score of cell number” value was -6.84 ± 3.1 in assay [1] (siRNA: siRpgrip1l) and 0.449 ± 4 in assay [1] (siRNA: siScr). Also, the “robust z score of cilia incidence” value is 0.228 ± 0.85 in assay [2] and -6.66 ± 4.5 in assay [3].

With `CN1[C@@H]2CC[C@H]1C[C@@H](OC(c1ccc(F)cc1)c1ccc(F)cc1)C2` [3 α-Bis-(4-fluorophenyl) methoxytropane hydrochloride], the “robust z score of cell number” value in assay [1] (siRNA: siRpgrip1l) is -30.38 ± 0.056; in assay [1] (siRNA: siScr), -29.3 ± 14. For the same molecule, the results for the “robust z score of cilia incidence” value in assay [2] and in assay [3] were -45.2 ± 9.5 and -27.3 ± 5, respectively.

For the molecule `CCCN(CCC)[C@@H]1CCc2c(OC)cccc2[C@@H]1C` [(+)-UH 232 maleate], the results for the “robust z score of cell number” value in assay [1] (siRNA: siRpgrip1l) and in assay [1] (siRNA: siScr) were -0.0617 ± 3.7 and 5.52 ± 9.8, respectively. In addition, the “robust z score of cilia incidence” value is -6.19 ± 5.2 in assay [2] and -9.64 ± 2.4 in assay [3].

Regarding `CN1C(=O)CCS(=O)(=O)C1c1ccc(Cl)cc1` (configuration not stated) [Chlormezanone], the “robust z score of cell number” value is 0.198 ± 0.26 in assay [1] (siRNA: siRpgrip1l) and -8.96 ± 12 in assay [1] (siRNA: siScr). Besides, the “robust z score of cilia incidence” value in assay [2] is -0.0469 ± 4.8; in assay [3], -5.31 ± 3.9.

Regarding `CC1=NN=C(c2ccc(N)cc2)c2cc3c(cc2C1)OCO3`, the “robust z score of cell number” value in assay [1] (siRNA: siRpgrip1l) was -86.8 ± 94; in assay [1] (siRNA: siScr) it was -20.9 ± 7. The “robust z score of cilia incidence” value in assay [2] was -9.55 ± 5.1; in assay [3], -287 ± 160.

As to `c1ccc2nc(N3CCNCC3)ccc2c1` [Quipazine dimaleate], the “robust z score of cell number” value was -9.19 ± 11 in assay [1] (siRNA: siRpgrip1l) and -3.52 ± 6.3 in assay [1] (siRNA: siScr). Further, the entries for the “robust z score of cilia incidence” value in assay [2] and in assay [3] were -0.982 ± 0.6 and -11.9 ± 5, respectively.

For `C(=C\c1ccccc1)/CN1CCN(CCOC(c2ccccc2)c2ccccc2)CC1`, the “robust z score of cell number” value in assay [1] (siRNA: siRpgrip1l) was -119 ± 86; in assay [1] (siRNA: siScr), -158 ± 140. The “robust z score of cilia incidence” value was -15.3 ± 0.5 in assay [2] and -48.3 ± 5 in assay [3].

With `CC(N)Cc1c[nH]c2ccc(O)cc12` (stereo not drawn) [α-Methyl-5-hydroxytryptamine maleate], the “robust z score of cell number” value in assay [1] (siRNA: siRpgrip1l) is -10.5 ± 9.7; in assay [1] (siRNA: siScr), -2.82 ± 6.1. Moreover, the “robust z score of cilia incidence” value was 0.802 ± 1.6 in assay [2] and -10.2 ± 1.9 in assay [3].

Source of the values: the supplement of paper PMC12009310.
